Measured values: the supplement of paper PMC10849652
The list shows a part of the results.

The chains behind the UniProt entries cited, without tags or fusion partners. Where a name states a change or a piece, a line headed by the entry shows the natural chain unless it says otherwise.
UniProt P04062: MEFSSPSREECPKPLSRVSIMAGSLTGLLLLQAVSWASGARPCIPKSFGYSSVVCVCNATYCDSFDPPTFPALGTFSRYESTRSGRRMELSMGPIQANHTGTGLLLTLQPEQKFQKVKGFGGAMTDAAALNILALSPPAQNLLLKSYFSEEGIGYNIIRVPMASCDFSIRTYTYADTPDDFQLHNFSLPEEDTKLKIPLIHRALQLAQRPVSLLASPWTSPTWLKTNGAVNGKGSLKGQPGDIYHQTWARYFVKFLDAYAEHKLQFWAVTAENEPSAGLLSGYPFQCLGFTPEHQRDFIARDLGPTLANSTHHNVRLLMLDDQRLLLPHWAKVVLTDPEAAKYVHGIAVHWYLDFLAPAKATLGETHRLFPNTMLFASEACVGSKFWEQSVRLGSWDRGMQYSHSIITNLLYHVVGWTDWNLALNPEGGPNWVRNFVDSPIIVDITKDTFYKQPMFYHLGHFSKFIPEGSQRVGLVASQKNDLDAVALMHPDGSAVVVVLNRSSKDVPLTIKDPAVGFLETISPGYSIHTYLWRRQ
UniProt P51116, whole entry, looked up: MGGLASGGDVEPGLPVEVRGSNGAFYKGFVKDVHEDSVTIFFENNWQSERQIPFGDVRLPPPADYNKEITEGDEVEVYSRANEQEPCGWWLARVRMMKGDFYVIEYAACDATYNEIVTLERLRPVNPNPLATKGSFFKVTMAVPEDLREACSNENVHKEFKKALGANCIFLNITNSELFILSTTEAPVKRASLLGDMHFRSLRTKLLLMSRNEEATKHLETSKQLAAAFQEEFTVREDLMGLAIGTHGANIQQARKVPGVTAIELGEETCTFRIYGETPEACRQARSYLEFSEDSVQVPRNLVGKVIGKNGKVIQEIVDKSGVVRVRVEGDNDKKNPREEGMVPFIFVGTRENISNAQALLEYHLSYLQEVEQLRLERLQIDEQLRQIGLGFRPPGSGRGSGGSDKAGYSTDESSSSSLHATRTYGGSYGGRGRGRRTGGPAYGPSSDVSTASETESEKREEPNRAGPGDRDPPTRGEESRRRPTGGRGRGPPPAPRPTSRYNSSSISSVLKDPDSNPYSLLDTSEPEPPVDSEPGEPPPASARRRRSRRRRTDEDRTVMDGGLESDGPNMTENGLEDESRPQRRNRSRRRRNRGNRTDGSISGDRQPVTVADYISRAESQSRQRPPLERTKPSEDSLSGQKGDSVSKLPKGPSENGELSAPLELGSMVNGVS
UniProt Q8TB36: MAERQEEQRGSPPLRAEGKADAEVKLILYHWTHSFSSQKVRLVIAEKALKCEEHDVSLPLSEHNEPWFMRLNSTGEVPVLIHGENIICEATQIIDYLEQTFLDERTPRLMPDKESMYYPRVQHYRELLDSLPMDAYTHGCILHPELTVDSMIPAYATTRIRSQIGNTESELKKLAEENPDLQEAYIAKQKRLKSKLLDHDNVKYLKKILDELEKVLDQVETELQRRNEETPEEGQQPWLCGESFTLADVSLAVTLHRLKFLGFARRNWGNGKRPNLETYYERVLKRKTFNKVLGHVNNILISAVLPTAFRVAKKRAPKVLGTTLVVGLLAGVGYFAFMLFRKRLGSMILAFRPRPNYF
UniProt P34059: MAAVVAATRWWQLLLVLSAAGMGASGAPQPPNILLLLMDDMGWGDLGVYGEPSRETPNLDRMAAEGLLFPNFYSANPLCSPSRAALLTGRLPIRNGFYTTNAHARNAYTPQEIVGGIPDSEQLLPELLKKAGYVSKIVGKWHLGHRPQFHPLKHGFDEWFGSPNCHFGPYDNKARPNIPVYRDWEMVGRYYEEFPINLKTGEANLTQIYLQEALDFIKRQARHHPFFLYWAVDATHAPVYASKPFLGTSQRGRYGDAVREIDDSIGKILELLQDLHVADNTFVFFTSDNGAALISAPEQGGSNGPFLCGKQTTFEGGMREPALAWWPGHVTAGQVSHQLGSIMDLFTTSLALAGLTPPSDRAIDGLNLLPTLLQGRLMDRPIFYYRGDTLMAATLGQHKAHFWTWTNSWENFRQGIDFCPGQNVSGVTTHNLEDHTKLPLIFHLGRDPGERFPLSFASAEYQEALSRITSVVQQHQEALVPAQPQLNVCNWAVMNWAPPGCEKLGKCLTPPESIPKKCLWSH
UniProt P51114, whole entry, looked up: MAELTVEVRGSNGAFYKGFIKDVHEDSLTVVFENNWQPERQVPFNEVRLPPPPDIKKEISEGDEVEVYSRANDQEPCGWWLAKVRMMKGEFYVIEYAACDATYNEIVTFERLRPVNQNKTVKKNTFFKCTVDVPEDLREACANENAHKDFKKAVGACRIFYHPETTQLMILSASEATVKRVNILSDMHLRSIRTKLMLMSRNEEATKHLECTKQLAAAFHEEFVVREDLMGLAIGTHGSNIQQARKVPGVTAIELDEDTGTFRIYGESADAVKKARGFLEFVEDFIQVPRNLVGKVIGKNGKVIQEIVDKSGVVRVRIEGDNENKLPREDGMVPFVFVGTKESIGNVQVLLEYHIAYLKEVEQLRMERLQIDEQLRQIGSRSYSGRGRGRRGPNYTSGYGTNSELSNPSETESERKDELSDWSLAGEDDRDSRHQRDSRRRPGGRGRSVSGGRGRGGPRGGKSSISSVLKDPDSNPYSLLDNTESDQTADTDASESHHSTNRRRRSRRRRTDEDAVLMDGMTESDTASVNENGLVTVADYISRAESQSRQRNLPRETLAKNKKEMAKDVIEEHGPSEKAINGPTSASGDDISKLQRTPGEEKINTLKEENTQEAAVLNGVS
UniProt O75600: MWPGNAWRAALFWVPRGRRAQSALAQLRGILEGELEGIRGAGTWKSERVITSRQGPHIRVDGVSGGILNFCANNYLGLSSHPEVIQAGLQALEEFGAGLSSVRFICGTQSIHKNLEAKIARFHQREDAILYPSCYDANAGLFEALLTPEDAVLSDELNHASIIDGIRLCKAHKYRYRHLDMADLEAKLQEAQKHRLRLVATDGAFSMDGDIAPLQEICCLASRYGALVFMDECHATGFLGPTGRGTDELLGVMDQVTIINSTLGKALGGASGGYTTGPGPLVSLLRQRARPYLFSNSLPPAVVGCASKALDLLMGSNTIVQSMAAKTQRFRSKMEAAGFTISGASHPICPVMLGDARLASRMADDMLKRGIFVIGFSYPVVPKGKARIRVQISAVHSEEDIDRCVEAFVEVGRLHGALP
UniProt Q01415: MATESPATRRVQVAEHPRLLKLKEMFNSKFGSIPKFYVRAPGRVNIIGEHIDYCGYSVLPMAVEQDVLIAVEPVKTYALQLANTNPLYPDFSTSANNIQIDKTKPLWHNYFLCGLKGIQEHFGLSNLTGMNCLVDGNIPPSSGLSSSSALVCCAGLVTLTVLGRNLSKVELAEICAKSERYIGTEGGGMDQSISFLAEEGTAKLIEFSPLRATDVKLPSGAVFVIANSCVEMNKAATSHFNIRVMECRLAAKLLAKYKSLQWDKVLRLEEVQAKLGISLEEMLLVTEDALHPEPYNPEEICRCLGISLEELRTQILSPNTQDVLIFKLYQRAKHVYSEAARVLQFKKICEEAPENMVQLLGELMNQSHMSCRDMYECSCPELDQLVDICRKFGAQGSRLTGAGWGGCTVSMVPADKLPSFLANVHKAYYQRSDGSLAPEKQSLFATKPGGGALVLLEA
UniProt O95749: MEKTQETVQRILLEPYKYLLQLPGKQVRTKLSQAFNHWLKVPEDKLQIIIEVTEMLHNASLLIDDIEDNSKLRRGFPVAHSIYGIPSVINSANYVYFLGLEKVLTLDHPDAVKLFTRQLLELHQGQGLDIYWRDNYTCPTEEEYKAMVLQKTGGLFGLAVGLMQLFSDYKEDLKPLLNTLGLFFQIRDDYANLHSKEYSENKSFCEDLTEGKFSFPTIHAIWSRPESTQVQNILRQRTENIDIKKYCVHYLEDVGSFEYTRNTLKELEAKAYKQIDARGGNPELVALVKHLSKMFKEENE
UniProt P02792: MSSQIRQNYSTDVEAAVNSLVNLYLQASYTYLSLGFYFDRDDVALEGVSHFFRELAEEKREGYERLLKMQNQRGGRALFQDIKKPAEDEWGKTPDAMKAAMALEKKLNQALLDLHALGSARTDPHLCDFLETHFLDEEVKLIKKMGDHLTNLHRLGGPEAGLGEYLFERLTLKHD
UniProt O14772: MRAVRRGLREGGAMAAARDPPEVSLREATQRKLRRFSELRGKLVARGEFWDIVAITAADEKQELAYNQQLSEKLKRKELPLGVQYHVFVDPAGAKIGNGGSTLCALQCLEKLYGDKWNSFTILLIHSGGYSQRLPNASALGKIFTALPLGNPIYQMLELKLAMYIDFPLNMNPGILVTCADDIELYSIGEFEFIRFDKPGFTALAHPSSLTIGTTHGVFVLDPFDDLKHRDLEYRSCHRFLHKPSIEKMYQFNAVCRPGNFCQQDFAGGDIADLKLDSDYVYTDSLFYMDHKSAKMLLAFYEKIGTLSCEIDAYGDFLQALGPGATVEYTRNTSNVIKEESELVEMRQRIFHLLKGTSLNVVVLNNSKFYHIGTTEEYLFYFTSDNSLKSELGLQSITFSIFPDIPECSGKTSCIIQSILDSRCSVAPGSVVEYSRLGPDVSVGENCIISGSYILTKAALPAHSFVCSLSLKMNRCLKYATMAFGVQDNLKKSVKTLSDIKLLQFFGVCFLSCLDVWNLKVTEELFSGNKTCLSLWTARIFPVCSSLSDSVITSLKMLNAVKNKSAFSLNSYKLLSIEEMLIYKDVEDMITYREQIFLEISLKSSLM
UniProt P02774: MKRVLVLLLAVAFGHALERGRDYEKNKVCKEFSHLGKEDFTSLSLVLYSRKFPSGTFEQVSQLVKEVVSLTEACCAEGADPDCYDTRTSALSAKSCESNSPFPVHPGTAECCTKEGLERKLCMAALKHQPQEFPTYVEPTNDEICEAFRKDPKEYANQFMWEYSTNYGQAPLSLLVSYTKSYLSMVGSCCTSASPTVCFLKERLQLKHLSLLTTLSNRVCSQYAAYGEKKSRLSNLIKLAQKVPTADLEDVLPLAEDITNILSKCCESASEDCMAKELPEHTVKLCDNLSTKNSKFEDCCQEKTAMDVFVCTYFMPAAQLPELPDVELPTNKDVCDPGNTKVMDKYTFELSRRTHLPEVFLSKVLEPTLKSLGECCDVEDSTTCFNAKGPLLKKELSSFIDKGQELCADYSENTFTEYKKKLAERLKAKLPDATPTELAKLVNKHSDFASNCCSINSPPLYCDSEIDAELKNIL
UniProt Q9C0B1, whole entry, looked up: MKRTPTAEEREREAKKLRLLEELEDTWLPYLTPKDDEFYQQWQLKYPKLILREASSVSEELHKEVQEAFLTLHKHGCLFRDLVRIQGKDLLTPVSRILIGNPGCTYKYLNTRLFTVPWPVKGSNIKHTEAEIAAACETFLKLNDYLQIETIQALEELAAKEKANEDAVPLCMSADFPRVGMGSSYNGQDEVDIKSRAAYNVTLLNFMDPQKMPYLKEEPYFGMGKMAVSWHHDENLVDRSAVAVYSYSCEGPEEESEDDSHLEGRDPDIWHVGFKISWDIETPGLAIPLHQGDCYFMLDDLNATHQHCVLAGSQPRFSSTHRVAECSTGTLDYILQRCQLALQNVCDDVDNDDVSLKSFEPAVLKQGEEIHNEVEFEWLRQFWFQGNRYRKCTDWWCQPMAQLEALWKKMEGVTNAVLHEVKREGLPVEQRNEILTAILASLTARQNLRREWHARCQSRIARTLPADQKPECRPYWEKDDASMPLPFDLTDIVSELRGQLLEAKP
UniProt P11413, whole entry, looked up: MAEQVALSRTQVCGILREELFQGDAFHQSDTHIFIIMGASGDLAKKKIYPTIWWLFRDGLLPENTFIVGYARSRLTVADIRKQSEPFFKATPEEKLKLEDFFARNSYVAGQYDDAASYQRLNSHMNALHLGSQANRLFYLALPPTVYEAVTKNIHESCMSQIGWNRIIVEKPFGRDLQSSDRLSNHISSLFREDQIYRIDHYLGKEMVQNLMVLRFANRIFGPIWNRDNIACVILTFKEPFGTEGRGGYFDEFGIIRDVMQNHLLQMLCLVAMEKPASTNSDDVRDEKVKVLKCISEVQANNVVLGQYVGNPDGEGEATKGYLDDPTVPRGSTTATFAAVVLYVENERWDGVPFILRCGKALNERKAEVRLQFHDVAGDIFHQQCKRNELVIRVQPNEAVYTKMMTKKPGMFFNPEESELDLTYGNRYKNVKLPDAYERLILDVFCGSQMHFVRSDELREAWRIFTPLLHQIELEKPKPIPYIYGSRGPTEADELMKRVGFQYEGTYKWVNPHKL

Columns and labels:
Experiment in all cases: log2 fold change, soluble protein after heating vs DMSO (PISA); higher = thermal stabilisation; K562 cells, 10 uM, 30 min; active = over 0.2 and 3.5 SD of the protein, either way, in both replicates (recomputed)
[1] = compound: CC[C@@H]1C(=O)N(C)c2cnc(Nc3ccc(C(=O)NC4CCN(C)CC4)cc3OC)nc2N1C1CCCC1
Procedure, shortened: (§1)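 K562 cells (2×10^6 cells/mL) were treated with 10 μM compound for 30 min, and aliquots were heated for 3 min over 48°C-58°C. Pooled aliquots were extracted in PBS with 0.5% NP-40 at 4°C, and the supernatant after 21,000xg for 90 min was measured by TMTpro 16plex LC-MS/MS with channel sums equalised. Reported thermal stability, relative to control samples and from duplicates, is a log2 fold change.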

volasertib = compound: CC[C@@H]1C(=O)N(C)c2cnc(Nc3ccc(C(=O)N[C@H]4CC[C@H](N5CCN(CC6CC6)CC5)CC4)cc3OC)nc2N1C(C)C [volasertib]
Procedure, shortened: as §1

[2] = compound: CC[C@H](C)N1C=C(C2=C(C=C(C=C21)C3=CN=C(C=C3)N4CCNCC4)C(=O)NCC5=C(C=C(NC5=O)C)C)C
Procedure, shortened: as §1

epoxomicin = compound: CC[C@H](C)[C@@H](C(=O)N[C@@H]([C@@H](C)O)C(=O)N[C@@H](CC(C)C)C(=O)[C@]1(CO1)C)NC(=O)[C@H]([C@@H](C)CC)N(C)C(=O)C [epoxomicin]
Procedure, shortened: as §1

[3] = compound: CCn1c(C(=O)N(C2CC2)C2CC2)cc2c3c(ncn3C)c(Nc3cc(C)n(C)n3)nc21
Procedure, shortened: as §1

[4] = compound: CCn1cc(-c2ccnc3[nH]c(-c4cccc(CN(C)C)c4)cc23)c(-c2ccc(NC(=O)N(C)C)cc2)n1
Procedure, shortened: as §1

[5] = compound: CN(C)CC(=O)Nc1ccc2[nH]c(=O)c3ccccc3c2c1
Procedure, shortened: as §1

rosiglitazone = compound: CN(CCOC1=CC=C(C=C1)C[C@H]2C(=O)NC(=O)S2)C3=CC=CC=N3 (racemic) [rosiglitazone]
Procedure, shortened: as §1

[6] = compound: CN1C2=C(C3=C1C(=O)N(N=C3)CC4=CC(=CC=C4)N)SC(=C2)S(=O)C
Procedure, shortened: as §1

[7] = compound: CN1CCC(CNc2ccc3ncc(-c4cccc(OC(F)(F)F)c4)n3n2)CC1
Procedure, shortened: as §1

saracatinib = compound: CN1CCN(CCOc2cc(OC3CCOCC3)c3c(Nc4c(Cl)ccc5c4OCO5)ncnc3c2)CC1 [saracatinib]
Procedure, shortened: as §1

sotrastaurin = compound: CN1CCN(c2nc(C3=C(c4c[nH]c5ccccc45)C(=O)NC3=O)c3ccccc3n2)CC1 [sotrastaurin]
Procedure, shortened: as §1

alvocidib = compound: CN1CC[C@H](c2c(O)cc(O)c3c(=O)cc(-c4ccccc4Cl)oc23)[C@H](O)C1 [alvocidib]
Procedure, shortened: as §1

Tubastatin A = compound: CN1CCc2c(c3ccccc3n2Cc2ccc(C(=O)NO)cc2)C1 [Tubastatin A]
Procedure, shortened: as §1

[8] = compound: CNC(=O)C1=CC=CC=C1NC2=NC(=NC=C2Cl)NC3=C(C=C(C=C3)N4CCOCC4)OC
Procedure, shortened: as §1

defactinib = compound: CNC(=O)c1ccc(Nc2ncc(C(F)(F)F)c(NCc3nccnc3N(C)S(C)(=O)=O)n2)cc1 [defactinib]
Procedure, shortened: as §1

rucaparib = compound: CNCc1ccc(-c2[nH]c3cc(F)cc4c3c2CCNC4=O)cc1 [rucaparib]
Procedure, shortened: as §1

[9] = compound: CNc1nc(-c2ccc3c(N)n[nH]c3c2)cc(N2C[C@@H](C(=O)NC3CCCCC3)CC[C@H]2C)n1
Procedure, shortened: as §1

encorafenib = compound: COC(=O)N[C@@H](C)CNc1nccc(-c2cn(C(C)C)nc2-c2cc(Cl)cc(NS(C)(=O)=O)c2F)n1 [encorafenib]
Procedure, shortened: as §1

[10] = compound: COC(=O)[C@H](CCSC)NC(=O)C1=C(C=C(C=C1)NC[C@H](CS)N)C2=CC=CC=C2
Procedure, shortened: as §1

Measured: log2 fold change

GBA (UniProt P04062)
inactive: [1] 0.024 | volasertib 0.051 | [2] 0.059 | epoxomicin 0.015 | [3] 0.012 | [4] 0.087 | [5] 0.015 | rosiglitazone 0.031 | [6] 0.048 | [7] 0.026 | saracatinib -0.023 | sotrastaurin -0.071 | alvocidib 0.008 | Tubastatin A -0.023 | [8] -0.029 | defactinib -0.014 | rucaparib -0.082 | [9] -0.043 | encorafenib -0.048 | [10] 0.031

FXR2 (UniProt P51116)
inactive: [1] 0.056 | volasertib -0.045 | [2] 0.019 | epoxomicin -0.108 | [3] 0.023 | [4] 0.133 | [5] -0.053 | rosiglitazone -0.001 | [6] 0.459 | [7] 0.029 | saracatinib -0.179 | sotrastaurin -0.011 | alvocidib 0.152 | Tubastatin A -0.05 | [8] -0.064 | defactinib 0.289 | rucaparib 0.169 | [9] 0.149 | encorafenib 0.131 | [10] -0.064

GDAP1 (UniProt Q8TB36)
inactive: [1] 0.228 | volasertib 0.073 | [2] 0.023 | epoxomicin -0.047 | [3] -0.04 | [4] 0.026 | [5] -0.107 | rosiglitazone 0.01 | [6] 0.047 | [7] -0.052 | saracatinib 0.003 | sotrastaurin 0.013 | alvocidib -0.13 | Tubastatin A -0.03 | [8] -0.013 | defactinib 0.037 | rucaparib -0.131 | [9] 0.036 | encorafenib 0 | [10] 0.007

GALNS (UniProt P34059)
inactive: [1] 0.015 | volasertib 0.122 | [2] -0.076 | epoxomicin -0.04 | [3] 0.013 | [4] 0.007 | [5] 0.065 | rosiglitazone -0.041 | [6] -0.004 | [7] 0.037 | saracatinib 0.031 | sotrastaurin 0.012 | alvocidib 0.017 | Tubastatin A 0.008 | [8] 0.014 | defactinib 0.012 | rucaparib 0.005 | [9] 0.019 | encorafenib 0.061 | [10] 0.087

FXR1 (UniProt P51114)
inactive: [1] 0.149 | volasertib -0.138 | [2] 0.071 | epoxomicin -0.399 | [3] 0.069 | [4] 0.215 | [5] 0.004 | rosiglitazone 0.002 | [6] 0.422 | [7] 0.018 | saracatinib -0.103 | sotrastaurin -0.148 | alvocidib 0.204 | Tubastatin A 0.036 | [8] -0.082 | defactinib 0.135 | rucaparib 0.463 | [9] 0.084 | encorafenib 0.164 | [10] -0.035

GAMT (UniProt Q14353)
inactive: [1] 0.055 | volasertib 0.265 | [2] 0.088 | epoxomicin -0.063 | [3] -0.007 | [4] -0.102 | [5] 0.041 | rosiglitazone 0.017 | [6] -0.026 | [7] 0.03 | saracatinib -0.017 | sotrastaurin -0.091 | alvocidib -0.032 | Tubastatin A 0.037 | [8] 0 | defactinib -0.115 | rucaparib 0.067 | [9] 0.016 | encorafenib -0.042 | [10] -0.005

Reprinted at random: 2 records from the list, in no set order.
GALNS (UniProt P34059)
inactive: [1] 0.015 | volasertib 0.122 | [2] -0.076 | epoxomicin -0.04 | [3] 0.013 | [4] 0.007 | [5] 0.065 | rosiglitazone -0.041 | [6] -0.004 | [7] 0.037 | saracatinib 0.031 | sotrastaurin 0.012 | alvocidib 0.017 | Tubastatin A 0.008 | [8] 0.014 | defactinib 0.012 | rucaparib 0.005 | [9] 0.019 | encorafenib 0.061 | [10] 0.087

GAMT (UniProt Q14353)
inactive: [1] 0.055 | volasertib 0.265 | [2] 0.088 | epoxomicin -0.063 | [3] -0.007 | [4] -0.102 | [5] 0.041 | rosiglitazone 0.017 | [6] -0.026 | [7] 0.03 | saracatinib -0.017 | sotrastaurin -0.091 | alvocidib -0.032 | Tubastatin A 0.037 | [8] 0 | defactinib -0.115 | rucaparib 0.067 | [9] 0.016 | encorafenib -0.042 | [10] -0.005

(list continues)

GCAT isoform 2 (UniProt O75600)
inactive: [1] 0.005 | volasertib 0.068 | [2] -0.027 | epoxomicin -0.002 | [3] -0.11 | [4] -0.063 | [5] -0.034 | rosiglitazone 0.006 | [6] 0.023 | [7] -0.118 | saracatinib 0.017 | sotrastaurin -0.005 | alvocidib -0.208 | Tubastatin A 0.064 | [8] 0.12 | defactinib -0.058 | rucaparib -0.02 | [9] -0.022 | encorafenib -0.007 | [10] -0.063

GALK2 (UniProt Q01415)
inactive: [1] 0.013 | volasertib 0.05 | [2] -0.015 | epoxomicin 0.018 | [3] -0.004 | [4] -0.027 | [5] -0.026 | rosiglitazone -0.01 | [6] -0.007 | [7] -0.025 | saracatinib 0.005 | sotrastaurin 0.017 | alvocidib -0.006 | Tubastatin A -0.054 | [8] -0.031 | defactinib 0.021 | rucaparib -0.066 | [9] -0.054 | encorafenib -0.002 | [10] -0.002

GGPS1 (UniProt O95749)
inactive: [1] 0.063 | volasertib 0.104 | [2] -0.055 | epoxomicin 0.007 | [3] 0.019 | [4] 0.028 | [5] -0.026 | rosiglitazone 0.031 | [6] -0.031 | [7] -0.034 | saracatinib 0.024 | sotrastaurin 0.06 | alvocidib -0.014 | Tubastatin A -0.031 | [8] -0.026 | defactinib -0.001 | rucaparib -0.098 | [9] -0.054 | encorafenib 0.011 | [10] 0.041

FRG1 (UniProt Q14331)
inactive: [1] 0.066 | volasertib 0.166 | [2] -0.02 | epoxomicin -0.08 | [3] -0.039 | [4] 0.063 | [5] -0.041 | rosiglitazone -0.047 | [6] 0.064 | [7] 0.025 | saracatinib -0.053 | sotrastaurin -0.017 | alvocidib 0.202 | Tubastatin A -0.008 | [8] -0.01 | defactinib 0.119 | rucaparib 0.145 | [9] 0.043 | encorafenib 0.011 | [10] 0.026

FTL (UniProt P02792)
inactive: [1] 0.101 | volasertib 0.138 | [2] 0.081 | epoxomicin -0.042 | [3] 0.039 | [4] 0.022 | [5] 0.003 | rosiglitazone 0.016 | [6] 0.033 | [7] 0.003 | saracatinib -0.195 | sotrastaurin 0.022 | alvocidib -0.01 | Tubastatin A -0.164 | [8] 0.066 | defactinib 0.019 | rucaparib 0.061 | [9] -0.216 | encorafenib 0.075 | [10] 0.074

FPGT (UniProt O14772)
inactive: [1] 0.037 | volasertib -0.001 | [2] -0.025 | epoxomicin 0.025 | [3] 0.009 | [4] -0.092 | [5] -0.001 | rosiglitazone -0.008 | [6] -0.068 | [7] -0.123 | saracatinib 0.071 | sotrastaurin 0.024 | alvocidib -0.019 | Tubastatin A -0.014 | [8] -0.005 | defactinib 0.011 | rucaparib -0.052 | [9] -0.025 | encorafenib -0.031 | [10] 0.021

GAN (UniProt Q9H2C0)
inactive: [1] 0.033 | volasertib 0.032 | [2] 0.043 | epoxomicin -0.03 | [3] -0.019 | [4] -0.07 | [5] 0.007 | rosiglitazone 0.031 | [6] 0.035 | [7] -0.101 | saracatinib 0.121 | sotrastaurin 0.022 | alvocidib -0.061 | Tubastatin A -0.05 | [8] 0.008 | defactinib -0.022 | rucaparib -0.113 | [9] 0.022 | encorafenib -0.054 | [10] 0.055

GC isoform 3 (UniProt P02774)
inactive: [1] -0.02 | volasertib 0.068 | [2] -0.004 | epoxomicin -0.663 | [3] -0.037 | [4] 0.223 | [5] 0.002 | rosiglitazone -0.111 | [6] 0.154 | [7] 0.1 | saracatinib 0.594 | sotrastaurin 0.092 | alvocidib -0.094 | Tubastatin A -0.102 | [8] 0.209 | defactinib -0.22 | rucaparib -0.119 | [9] 0.326 | encorafenib -0.074 | [10] 0.128

FTO (UniProt Q9C0B1)
inactive: [1] 0.045 | volasertib 0.045 | [2] -0.002 | epoxomicin 0.055 | [3] -0.02 | [4] -0.095 | [5] 0.022 | rosiglitazone -0.003 | [6] -0.03 | [7] 0.012 | saracatinib 0.012 | sotrastaurin 0.039 | alvocidib -0.018 | Tubastatin A -0.014 | [8] 0.037 | defactinib -0.031 | rucaparib -0.033 | [9] -0.005 | encorafenib -0.005 | [10] 0.039

G6PD isoform 2 (UniProt P11413)
inactive: [1] -0.054 | volasertib 0.037 | [2] 0.056 | epoxomicin 0.047 | [3] 0.013 | [4] -0.059 | [5] 0.005 | rosiglitazone 0.043 | [6] -0.083 | [7] -0.036 | saracatinib 0.001 | sotrastaurin 0.003 | alvocidib -0.101 | Tubastatin A -0.025 | [8] 0.001 | defactinib -0.009 | rucaparib -0.051 | [9] 0.021 | encorafenib -0.016 | [10] -0.013
